Patent US20100249123A1, “NOVEL BENZAMIDE DERIVATIVES AS MODULATORS OF THE FOLLICLE STIMULATING HORMONE” (ADDEX PHARMA SA, priority 2007, published 2010)

By UniProt entry, the sequences of proteins in these tests, tags left out. Residues count along the entry.
UniProt P20395, 18-692 limits assumed: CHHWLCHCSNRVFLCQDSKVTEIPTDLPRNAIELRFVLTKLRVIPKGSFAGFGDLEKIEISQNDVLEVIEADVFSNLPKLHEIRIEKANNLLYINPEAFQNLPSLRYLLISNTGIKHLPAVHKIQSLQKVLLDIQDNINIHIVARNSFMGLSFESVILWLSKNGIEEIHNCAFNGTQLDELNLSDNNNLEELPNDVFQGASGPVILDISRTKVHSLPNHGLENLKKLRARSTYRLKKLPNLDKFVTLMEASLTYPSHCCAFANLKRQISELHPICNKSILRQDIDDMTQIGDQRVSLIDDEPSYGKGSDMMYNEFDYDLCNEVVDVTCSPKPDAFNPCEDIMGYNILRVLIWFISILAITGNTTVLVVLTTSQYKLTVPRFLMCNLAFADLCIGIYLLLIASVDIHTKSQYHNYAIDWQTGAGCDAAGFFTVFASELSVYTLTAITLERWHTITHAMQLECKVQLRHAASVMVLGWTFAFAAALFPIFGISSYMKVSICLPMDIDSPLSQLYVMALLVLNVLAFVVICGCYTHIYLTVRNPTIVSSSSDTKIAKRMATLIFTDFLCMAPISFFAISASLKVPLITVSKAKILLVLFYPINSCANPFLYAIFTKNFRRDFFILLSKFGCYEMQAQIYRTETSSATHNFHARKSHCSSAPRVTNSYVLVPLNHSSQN

Molecular target: rat follicle stimulating hormone receptor (rFSHR) (Rattus norvegicus, UniProt P20395)
Assay: Intracellular cAMP measurement (HTRF) assay, antagonism of EC70 of hFSH
Settings: read-out: Class (IC50 to antagonise an EC70 of FSH receptors agonist such as hFSH), HEK293 cells expressing rFSHR, 1 ng/ml hFSH (EC70)
Excerpt: Intracellular cAMP Measurement Assay
The Intracellular cAMP measurement assay is a functional cell-based assay used to study GPCR function. This method relies on a Time-Resolved Fluorescence (HTRF) assay to measure the cAMP accumulation upon receptor-mediated Gs protein activation in cells expressing recombinant GPCR or in cells from native tissues. In brief, this method is a competitive immunoassay between native cAMP produced by cells and the cAMP labeled with a fluorescent tag. The endogenously produced cAMP competes with exogenous added d2-labelled cAMP for the cAMP binding site on a Eu3+ cryptate labelled anti-cAMP antibody. The d2-labelled cAMP and the Eu^3+ labelled antibody produces a basal fluroresence via HTRF and therefore an intracellular increase in unlabelled cAMP is detected as decrease in this signal. cAMP is one of the most important intracellular mediators. […]
HTRF cAMP assay: On the day of the experiment, cells were detached from the Petri dish and distributed in a low volume, black-walled 384-well plate at a density of 5,000 cells/well in an assay buffer containing 1 mM IBMX to prevent cAMP degradation by cytoplasmic phosphodiesterases. […] Assay was then incubated for 1 hr at room temperature, and HTRF signal was measured after excitation at 337 nm, and dual emission at 620 and 665 nm, using a RubyStar fluorimeter (BMG Labtechnologies). […]

IC50 [µM] | Structure (SMILES)
0.15 to 0.4 | COc1ccc(C(=O)Nc2ccc(C(C)(C)CNC(=O)c3ccccc3)cc2)cc1OC
0.15 to 0.4 | COc1ccc(C(=O)Nc2ccc(C(C)(C)CNC(=O)c3nn(C)c4ccccc34)cc2)cc1OC

The match of structure and compound is tentative.
